Results from publication PMC7498670.

How the values were obtained:
[1] = biological target: T1, AtHUB2 (yeast two-hybrid fusion) (Arabidopsis) (UniProt Q9C895); assay: two-hybrid; genes in pGBKT7 and pGADT7, co-transformed into AH109 yeast; growth and quantitative beta-galactosidase activity (Clontech Yeast Protocols Handbook)
T1 sequence: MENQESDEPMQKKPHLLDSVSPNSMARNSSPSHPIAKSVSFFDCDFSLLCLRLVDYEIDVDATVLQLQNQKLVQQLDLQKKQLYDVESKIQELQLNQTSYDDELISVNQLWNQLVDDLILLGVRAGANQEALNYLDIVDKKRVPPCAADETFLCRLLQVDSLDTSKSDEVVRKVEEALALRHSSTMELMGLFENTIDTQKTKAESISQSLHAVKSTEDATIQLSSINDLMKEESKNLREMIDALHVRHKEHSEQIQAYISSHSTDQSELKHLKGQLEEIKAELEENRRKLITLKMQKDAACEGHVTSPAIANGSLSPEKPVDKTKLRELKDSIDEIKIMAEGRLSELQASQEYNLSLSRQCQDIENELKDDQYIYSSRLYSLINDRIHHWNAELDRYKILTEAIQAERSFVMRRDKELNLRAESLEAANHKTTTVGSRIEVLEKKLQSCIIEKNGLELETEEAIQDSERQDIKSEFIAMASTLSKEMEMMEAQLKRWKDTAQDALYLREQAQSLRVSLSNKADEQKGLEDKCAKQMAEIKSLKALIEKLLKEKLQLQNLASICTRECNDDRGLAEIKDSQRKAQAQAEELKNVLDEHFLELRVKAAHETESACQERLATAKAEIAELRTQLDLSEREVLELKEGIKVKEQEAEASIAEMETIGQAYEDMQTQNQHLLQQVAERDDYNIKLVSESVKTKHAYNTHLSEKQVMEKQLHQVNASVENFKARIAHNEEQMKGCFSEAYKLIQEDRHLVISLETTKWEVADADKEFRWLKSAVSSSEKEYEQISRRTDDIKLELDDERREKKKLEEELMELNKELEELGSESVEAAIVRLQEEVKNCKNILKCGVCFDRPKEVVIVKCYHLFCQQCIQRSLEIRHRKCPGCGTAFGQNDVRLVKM

[2] = biological target: T2, AtHUB2 (BiFC fusion with the C-terminal part of YFP) (Arabidopsis) (UniProt Q9C895); assay: split reporter; BiFC with split YFP (pVYNE(R) and pVYCE(R)), vectors co-transformed in pairs into Arabidopsis protoplasts; DAPI for the nucleus; confocal microscopy
T2 sequence: T1 sequence

binding [1] | binding [2] | Substance
binds | – | GmUBC9 (yeast two-hybrid fusion) (soybean (Glycine max)) (enzyme)
– | binds | GmUBC9-eYNP (BiFC fusion of GmUBC9 with the N-terminal part of YFP) (soybean (Glycine max)) (enzyme)

These are yes or no findings as the source states them, for the method shown. Binding calls can cover weak binding; strength is not graded here. Where a sequence is shown, tags or fusion partners need not be part of it. For some assays here: In cells and extracts the contact can be indirect.
